Test results from the supplement of paper PMC8960247.

System: 621-102 (TSC2-deficient)
Test: relative viability vs DMSO (fraction); higher = less cytotoxic
Conditions: serum: 0.1% FBS, 72 h

SMILES: OC(CN1CCN(c2cccc(Cl)c2)CC1)C(c1ccccc1)c1ccccc1 (stereo unspecified)
- relative viability (0.0128 nM): 0.979
- relative viability (0.064 nM): 1.16
- relative viability (0.32 nM): 1.16
- relative viability (1.6 nM): 0.899
- relative viability (8 nM): 0.713
- relative viability (40 nM): 0.614
- relative viability (200 nM): 0.765
- relative viability (1000 nM): 0.776
- relative viability (5000 nM): 0.468

SMILES: COC(=O)C1=C(C)NC(C)=C(C(=O)OCC(C)C)C1c1ccccc1[N+](=O)[O-] (stereo unspecified) [Nisoldipine]
- relative viability (0.0128 nM): 1.24
- relative viability (0.064 nM): 1.39
- relative viability (0.32 nM): 1.45
- relative viability (1.6 nM): 1.25
- relative viability (8 nM): 0.716
- relative viability (40 nM): 0.94
- relative viability (200 nM): 0.98
- relative viability (1000 nM): 1.12
- relative viability (5000 nM): 0.136

SMILES: NC(=O)c1ncn([C@@H]2O[C@H](CO)[C@@H](O)[C@H]2O)c1O [Mizoribine]
- relative viability (0.0128 nM): 0.722
- relative viability (0.064 nM): 0.79
- relative viability (0.32 nM): 0.858
- relative viability (1.6 nM): 0.903
- relative viability (8 nM): 0.841
- relative viability (40 nM): 0.789
- relative viability (200 nM): 0.817
- relative viability (1000 nM): 0.427
- relative viability (5000 nM): 0.868

SMILES: CC(C)c1cc(-c2ccc(F)c3ccccc23)nc(N)n1
- relative viability (0.0128 nM): 1.13
- relative viability (0.064 nM): 1.03
- relative viability (0.32 nM): 1.02
- relative viability (1.6 nM): 0.956
- relative viability (8 nM): 0.732
- relative viability (40 nM): 0.684
- relative viability (200 nM): 0.796
- relative viability (1000 nM): 0.165
- relative viability (5000 nM): 0.695

SMILES: NC12CC3CC(CC(C3)C1)C2 [Amantadine HCl]
- relative viability (0.0128 nM): 0.802
- relative viability (0.064 nM): 0.815
- relative viability (0.32 nM): 0.76
- relative viability (1.6 nM): 0.756
- relative viability (8 nM): 0.712
- relative viability (40 nM): 0.656
- relative viability (200 nM): 0.648
- relative viability (1000 nM): 0.727
- relative viability (5000 nM): 0.583

SMILES: CC1=NN(c2ccc(C)c(C)c2)C(=O)/C1=N\Nc1cccc(-c2cccc(C(=O)O)c2)c1O [Eltrombopag Olamine]
- relative viability (0.0128 nM): 0.792
- relative viability (0.064 nM): 0.719
- relative viability (0.32 nM): 0.663
- relative viability (1.6 nM): 0.687
- relative viability (8 nM): 0.671
- relative viability (40 nM): 0.313
- relative viability (200 nM): 0.207
- relative viability (1000 nM): 0.0862
- relative viability (5000 nM): 0.0321

SMILES: O=c1cc(-c2cccc3c2Sc2ccccc2S3)oc(N2CCOCC2)c1
- relative viability (0.0128 nM): 0.817
- relative viability (0.064 nM): 0.775
- relative viability (0.32 nM): 0.818
- relative viability (1.6 nM): 0.898
- relative viability (8 nM): 0.801
- relative viability (40 nM): 0.771
- relative viability (200 nM): 0.721
- relative viability (1000 nM): 0.676
- relative viability (5000 nM): 0.238

SMILES: COC(=O)Nc1nc2cc(Sc3ccccc3)ccc2[nH]1 [Fenbendazole]
- relative viability (0.0128 nM): 1.03
- relative viability (0.064 nM): 0.934
- relative viability (0.32 nM): 0.951
- relative viability (1.6 nM): 1.02
- relative viability (8 nM): 0.847
- relative viability (40 nM): 0.087
- relative viability (200 nM): 0.0336
- relative viability (1000 nM): 0.0482
- relative viability (5000 nM): 0.0283

SMILES: COc1cc2nccc(Oc3ccc(NC(=O)C4(C(=O)Nc5ccc(F)cc5)CC4)cc3)c2cc1OC [XL184]
- relative viability (0.0128 nM): 0.551
- relative viability (0.064 nM): 0.798
- relative viability (0.32 nM): 0.814
- relative viability (1.6 nM): 0.736
- relative viability (8 nM): 0.87
- relative viability (40 nM): 0.806
- relative viability (200 nM): 0.82
- relative viability (1000 nM): 0.547
- relative viability (5000 nM): 0.00711

SMILES: COc1ccccc1N1CCN(CC(O)COc2cccc3ccccc23)CC1 (stereo unspecified) [Naftopidil Dihydrochloride]
- relative viability (0.0128 nM): 1.39
- relative viability (0.064 nM): 1.54
- relative viability (0.32 nM): 1.72
- relative viability (1.6 nM): 1.23
- relative viability (8 nM): 0.647
- relative viability (40 nM): 0.776
- relative viability (200 nM): 1.01
- relative viability (1000 nM): 1.48
- relative viability (5000 nM): 0.807

SMILES: CCCc1nc2c(C)cc(-c3nc4ccccc4n3C)cc2n1Cc1ccc(-c2ccccc2C(=O)O)cc1 [Telmisartan]
- relative viability (0.0128 nM): 0.765
- relative viability (0.064 nM): 0.772
- relative viability (0.32 nM): 0.803
- relative viability (1.6 nM): 0.726
- relative viability (8 nM): 0.731
- relative viability (40 nM): 0.656
- relative viability (200 nM): 0.69
- relative viability (1000 nM): 0.731
- relative viability (5000 nM): 0.748

SMILES: C[C@]12CC[C@@H]3c4ccc(O)cc4C[C@@H](CCCCCCCCC[S+]([O-])CCCC(F)(F)C(F)(F)F)[C@H]3[C@@H]1CC[C@@H]2O (stereo partly specified) [Fulvestrant]
- relative viability (0.0128 nM): 1.01
- relative viability (0.064 nM): 0.968
- relative viability (0.32 nM): 0.891
- relative viability (1.6 nM): 0.878
- relative viability (8 nM): 0.807
- relative viability (40 nM): 0.847
- relative viability (200 nM): 0.771
- relative viability (1000 nM): 0.729
- relative viability (5000 nM): 0.626

SMILES: Cc1c(NC(=O)OC[C@@H]2COCCN2)cn2ncnc(Nc3ccc4c(cnn4Cc4cccc(F)c4)c3)c12
- relative viability (0.0128 nM): 0.841
- relative viability (0.064 nM): 0.949
- relative viability (0.32 nM): 0.894
- relative viability (1.6 nM): 0.938
- relative viability (8 nM): 0.746
- relative viability (40 nM): 0.847
- relative viability (200 nM): 0.793
- relative viability (1000 nM): 0.62
- relative viability (5000 nM): 0.237

SMILES: OCCn1cc(-c2cnc3nnn(Cc4ccc5ncccc5c4)c3n2)cn1
- relative viability (0.0128 nM): 0.855
- relative viability (0.064 nM): 0.756
- relative viability (0.32 nM): 0.825
- relative viability (1.6 nM): 0.814
- relative viability (8 nM): 0.874
- relative viability (40 nM): 0.874
- relative viability (200 nM): 0.811
- relative viability (1000 nM): 0.638
- relative viability (5000 nM): 0.746

SMILES: CN(C)CCOC(c1ccccc1)c1ccccc1 [Diphenhydramine HCl]
- relative viability (0.0128 nM): 1.22
- relative viability (0.064 nM): 1.37
- relative viability (0.32 nM): 1.36
- relative viability (1.6 nM): 1.51
- relative viability (8 nM): 0.935
- relative viability (40 nM): 0.776
- relative viability (200 nM): 0.89
- relative viability (1000 nM): 1.09
- relative viability (5000 nM): 0.554

SMILES: CC(C)NCC(O)COc1ccc(COCCOC(C)C)cc1 (stereo unspecified) [Bisoprolol fumarate]
- relative viability (0.0128 nM): 0.793
- relative viability (0.064 nM): 0.802
- relative viability (0.32 nM): 0.892
- relative viability (1.6 nM): 0.767
- relative viability (8 nM): 0.814
- relative viability (40 nM): 0.742
- relative viability (200 nM): 0.771
- relative viability (1000 nM): 0.885
- relative viability (5000 nM): 0.777

SMILES: Nc1nc(=O)n([C@@H]2CS[C@H](CO)O2)cc1F [Emtricitabine]
- relative viability (0.0128 nM): 0.645
- relative viability (0.064 nM): 0.71
- relative viability (0.32 nM): 0.738
- relative viability (1.6 nM): 0.772
- relative viability (8 nM): 0.695
- relative viability (40 nM): 0.716
- relative viability (200 nM): 0.652
- relative viability (1000 nM): 0.486
- relative viability (5000 nM): 0.198

SMILES: COc1cc2nccc(Oc3ccc(NC(=O)Nc4cc(C)on4)c(Cl)c3)c2cc1OC [AV-951]
- relative viability (0.0128 nM): 0.722
- relative viability (0.064 nM): 0.779
- relative viability (0.32 nM): 0.737
- relative viability (1.6 nM): 0.677
- relative viability (8 nM): 0.772
- relative viability (40 nM): 0.754
- relative viability (200 nM): 0.667
- relative viability (1000 nM): 0.408
- relative viability (5000 nM): 0.00725

SMILES: COc1c(C)cnc(Cn2cnc3c(Cl)nc(N)nc32)c1C [BIIB021]
- relative viability (0.0128 nM): 0.806
- relative viability (0.064 nM): 0.955
- relative viability (0.32 nM): 0.893
- relative viability (1.6 nM): 0.704
- relative viability (8 nM): 0.696
- relative viability (40 nM): 0.675
- relative viability (200 nM): 0.678
- relative viability (1000 nM): 0.863
- relative viability (5000 nM): 0.634

SMILES: Cc1ncc([N+](=O)[O-])n1CC(C)O (stereo unspecified) [Secnidazole]
- relative viability (0.0128 nM): 0.734
- relative viability (0.064 nM): 0.812
- relative viability (0.32 nM): 0.824
- relative viability (1.6 nM): 0.836
- relative viability (8 nM): 0.803
- relative viability (40 nM): 0.831
- relative viability (200 nM): 0.862
- relative viability (1000 nM): 0.8
- relative viability (5000 nM): 0.841

SMILES: COc1ncc(-c2ccc3nccc(-c4ccnnc4)c3c2)cc1NS(=O)(=O)c1ccc(F)cc1F
- relative viability (0.0128 nM): 0.9
- relative viability (0.064 nM): 0.824
- relative viability (0.32 nM): 0.861
- relative viability (1.6 nM): 0.844
- relative viability (8 nM): 0.864
- relative viability (40 nM): 0.762
- relative viability (200 nM): 0.643
- relative viability (1000 nM): 0.375
- relative viability (5000 nM): 0.226

SMILES: CCCCNc1ccc(C(=O)OCCN(C)C)cc1 [Tetracaine HCl]
- relative viability (0.0128 nM): 0.706
- relative viability (0.064 nM): 0.694
- relative viability (0.32 nM): 0.16
- relative viability (1.6 nM): 0.626
- relative viability (8 nM): 0.727
- relative viability (40 nM): 0.663
- relative viability (200 nM): 0.665
- relative viability (1000 nM): 0.698
- relative viability (5000 nM): 0.613

SMILES: CN1CCC(CNc2ccc3ncc(-c4cccc(OC(F)(F)F)c4)n3n2)CC1 [SGI-1776]
- relative viability (0.0128 nM): 0.871
- relative viability (0.064 nM): 0.966
- relative viability (0.32 nM): 0.907
- relative viability (1.6 nM): 0.809
- relative viability (8 nM): 0.736
- relative viability (40 nM): 0.782
- relative viability (200 nM): 0.777
- relative viability (1000 nM): 0.16
- relative viability (5000 nM): 0.029

SMILES: O=C(Nc1c[nH]nc1-c1nc2ccc(CN3CCOCC3)cc2[nH]1)NC1CC1 [AT9283]
- relative viability (0.0128 nM): 0.876
- relative viability (0.064 nM): 0.868
- relative viability (0.32 nM): 0.795
- relative viability (1.6 nM): 0.818
- relative viability (8 nM): 0.739
- relative viability (40 nM): 0.208
- relative viability (200 nM): 0.0283
- relative viability (1000 nM): 0.00844
- relative viability (5000 nM): 0.0121

Where a name gives a salt, the structure may show the parent alone. This is a noisy data set.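 Immortalized human renal angiomyolipoma cells with an empty vector keep TSC2 lost. A luminescent ATP assay measured viability, normalized per plate to vehicle-treated wells, in low-serum medium where TSC2-rescued cells fail to grow.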
